Assay results published in article PMC5587910, “Methionine Sulfoxide Reductase A (MsrA) and Its Function in Ubiquitin-Like Protein Modification in Archaea” (mBio, 2017).

B1: AAA ATPase Cdc48d (protein, UniProt D4GTE0 1-474)
chain: MSERALEVVEFLLTAHLYTDDRTLDENDLPPRYRRVFWADAEDDGDEDDSSAAGIERPLVVTESVARKATGVEHPWDAISDLMFTQREEFSGRLSLTQPEMALEWFVKRADYDRLVTNPTVAKSVEDRDDVDVTHADAREQTRPIHADRVWIDSLLDEYFDDEDDAEMLDLVQVRAPEEIEMTLDDLVLTTDQEGEIHKLMKAIEHREYLADIGLREIGKILFVGPPGTGKTTVSRALAHELGLPFVEVKLSMITSQYLGETAKNVEKTFEVAKRLSPCILFIDEFDSVAKTRRSDEHAALKRAVNTLLKSIDDISLIRDEVILIGATNHPDQLDSAAWRRFDEIVNFPKPDRGMRADILRVITNRMDIDEFDPSAIADVTEGLTGSDLRLVLREAVLEALTEERMELTQDDLLEAVADFEERDNLKNLDMMSDSSELVAGAGSGSDDGHDHSHDHDHTDEHEGETQKDAGAAQ
B2: Thermosome subunit 2 (protein, UniProt O30560 1-557)
chain: MSQRMQQGQPMIIMGEDAQRVKDRDAQEYNIRAARAVAEAVRSTLGPKGMDKMLVDSMGDVTITNDGVTILKEMDIDNPTAEMIVEVAETQEDEAGDGTTTAVAIAGELLKNAEDLLEQDIHPTAIIRGFNLASEKAREEIDDIAERVDPDDEELLKKVAETSMTGKSSELNKELLADLIVRAVRQVTVEANDGSHVVDLENVSIETQTGRSASESELLTGAVIDKDPVHDDMPVQFDEADVLLLNEPVEVEETDIDTNVSIESPDQLQKFLDQEEAQLKQKVDQIVDSGADVVFCQKGIDDLAQHYLAKQGILAVRRTKKSDIRFLKNITGAAVVSDLDSIEAAVLGRASVRRDEAGELFYVEGIGDDVHGVTLLLRGSTDHVVDELERGVQDALDVVASTVADGRVLAGGGAIEVELASRLRNYADSVSGREQLAVEAYADALELVPRVLAENAGLDSIDTLVDLRAAHEDGQVRAGLNVFTGEVEDAFDAGVVETAHAKEQAVASASEAANLVLKIDDIIAAGDLSTGGDDDEEGGAPGGMGGMGGMGGMGGAM
B3: Chaperone protein DnaK (protein, UniProt Q1XBW2 1-625)
chain: MASNKILGIDLGTTNSAFAVMEGGDPEIIVNAEGDRTTPSVVAFTDDGERLVGKPAKNQAIQNPERTIRSIKRHMGEDGYTVDIEGEEYTPEQISAMILQKIKRDAEDYLGDELQKAVITVPAYFNDKQRQATKDAGEIAGLDVERIVNEPTAASMAYGLDDESNQTVLVYDLGGGTFDVSVLDLGGGVYEVVATNGDNDLGGDDWDEAIIEWLATEFENDHGIDLREDRQALQRLKDAAEEAKIELSSRKETTINLPFITATDSGPVHLEYDLTRAKFESLTADLIDRTVEPTEQALEDAGYDKGDIDDVILVGGSTRMPQVRDKVEELLGSEPKKSVNPDEAVALGAAIQGGVLGGEVDDIVLLDVTPLSLGIEVKGGLFERLIEKNTTIPTEESKIFTTAADNQTTVQVRVFQGEREMAEDNELLGEFTLSGIPPAPAGTPQIEVGFNIDENGIVNVSAEDKGSGNAESITIEGGAGLSDEEIDRMQQEAEQHAEEDKERRRAVEARNEAEGAVQRAETLLEENEENVDDELRADIEAAVEDVEAVLEDDDASTDELEDVTEELSKELQEIGKRMYQQQAQAQAGGPGGAGAGAGAAGGPGGADPEDFVDADADFDEDDEDN
B4: AAA-type ATPase (CDC48 subfamily) Cdc48a (protein, UniProt D4GWM8 1-743)
chain: MNEVQLEVAKAYPNDSGRGIARLDPDTLLHLKLSPGDIIEIEGGKTTAAKVWRADRQDWNTDTVRIDGFTRQNADVGIGERVTIRKAEATKADKLVLAPPEEASVQFGSDAAGMVKRQILKRPVVERDIVPVMSSTNHPFMRSPGQAIPLIAVETKPEGVVLVTEDTDVELREEPISGFEKAGGGITYEDIGGLTNEIQRVREMVELPMKHPQIFKKLGIEPPQGVLLHGPPGTGKTLLARAVANETSASFFSIAGPEIISKYYGESEQQLREIFEDAKEESPSIIFIDELDSIAPKREDVTGEVERRVVAQLLTMMDGLEARGQVIVIAATNRVDSVDPALRRPGRFDREIEIGVPDEEGRKEILQIHTRGMPLSDDVDLDDLADDTHGFVGADIEALTKEAAMKALRRYLPEIDLDREDIPPSLIDRMVVKNDDFGGALGEVEPSAMREVLVEIPKVTWNDVGGLEGPKQKVQESVEWPLTTPEKFQRMGIEAPKGVLLYGPPGTGKTLIAKAVANETNANFISVRGPQLLSKWVGESEKAIRQTFRKARQVSPTIIFFDELDALAPARGNDMGNNVSERVVNQLLTELDGLEDAGNVMVIAATNRPDMIDPALIRSGRFDRLVLIGQPEEEGREQILDIHTQQSPLAPDVSLREIAEITDGYVGSDLESICREAAIEALREDSDAEEIEMRHFRKAMESVRPTITEELMRYYEDIQDQFKGGSREGLSPDTRDGGRIGFQ
B5: Aspartate-tRNA (Asp/Asn) ligase AspS (protein, UniProt O24822 1-433)
chain: MRNRTYTADAEPGDTVTVAGWVHEVRDLGGIAFLILRDTSGKIQVKFEKDEMDDDLVETGLGVHRESVISVTGEVDEEPRAPTGVEVTPESLDVIAEAEAQLPLDPSGKVDAELSTRLDNRTLDLRKDEVKAIFEIRAEVQRAVRDKFRDLRATEINTPKIVATGTEGGTELFPITYFGQEAFMNQSPQLFKQLMVGSGLERVFEVGPIFRAEEHNTPRHLNEATSIDFESAFIDHTEAMDVCEAVVTAAYEAVEENCQDELEALGLEEEFERRPRVPAAHLRGGHRAHQRTGELDEQLVWGDDLPTEGEKALGEDVGEHYFITDWPSEIKPFYIKDHDDDETLSTGFDMMHPNMELVSGGQREHRFDHLVAGFEQQGLDPDAFEYYTKMFKYGMPPHAGFGLGGERLIMTMLGLENIREAVLFPRDRQRLSP
B6: Type 2 DNA topoisomerase 6 subunit B (protein, UniProt D4GZ00 1-798)
chain: MTSFQSTLGDEPGIAEELAKGQREISIAEFFEKNKHMLGFDSGARGLVTAVKEAVDNALDATEEAGIQPDIYVEIAEAGDYYRLVIEDNGPGITKEQVPKVFGKLLYGSRFHAREQSRGQQGIGISAAVLYSQLTSGKPAKVTSRTQGSEDAEYFELVINTDQNEPEIRTEKTTSWDRPHGTRIELEMEANMRARQQLHDYILHTAVVNPHARIELREPGLDEPMKFERATDQLPKQTKEIRPHPHGVELGTLLKMLSATESYSVSGFLQEEFTRVGAKTSDKIHDAFRDRHFGREMTWRTPDASEADDLVAVVEDAVANKGKEATAAFADELVDIVVGKDRIAHGELVTVVENAAETVGEDTDTSFGETVRENVVEALWPALTDDREGDAYAIVDDVTTTQKDDAGKLSMARSIATQFAETTGPADRATRDDVAEFVSWAADRTKEREDETYGETAQENIADAIWSRMRTVSDEVPKVREVADDRDVARDLLDAMRETDILAPPTDCLSPISAELVEAGLKKEFDADFYAAATRDAEVHGGDPFIVEAGIAYGGELKSEGKIDLLRFANRVPLVYQQGACTITHVVKDIGWRNYGLDQPGGSGMPNGPAVLMVHVASTNVPFTSESKDALADVPAIQDEVELAIREAARDLKSYLSKRRSLQKRREKQDVLGRILPQMATKLSEVTGRPEPNIDGALGRIMNNLTVERAVDDGEVTLTVTNHSNTNESPDITDIVSAEPGGLDGEATVVGLDGEWFVKWNPEVPSGETATLTYSVAQDASFDINVDGVETEKLTVNV
B7: Pyruvate-ferredoxin oxidoreductase, subunit beta (protein, UniProt D4GXE9 1-312)
chain: MSAFSAIGEETEQDQNEFTPGLEPQPTWCPGCGDFGVLKALKGAAAELGLSPDEMMVTTGIGCSGKLNSYFNSYGFHTIHGRSLPIARAAKLANPGLTVVAAGGDGDGYGIGGNHFMHTARENHDITYIVFNNEIFGLTKGQTSPTSPMGHKSKTQPHGSAKTPLRPLSMSLNAGASYVARTAAVNPNQAKDIIVEAIQHDGFSHVDFLTQCPTWNKDARQYVPYIDINDSDDYEFDNTNRSEASEMMFETENALHEGTVLTGRYYVDEDRPSYQQEKQRIGEMPEEPLAERYFDDSYEWERTFDNFLDKHK
B8: Acetyl-CoA C-acyltransferase AcaB4 (protein, UniProt D4GRI4 1-387)
chain: MRDAYIVGAGQSKYGAFPDESYRSLFATAFEEALGSAGGVEAADIDEAVVGSLGVGGRQLGLSGPAVTEHVGLHGVPCSRIENACAASGYAVRQAVQAVKSGMADVALAGGYEVMTDTSGDVAKYWLGVSGETEWERLTGTTFAGVYAQIASAYLDAYDASPDHFSKVAVKNHANGAKNPKAHLGFECSLDDARSAPVVADPLNLYHCCPTSDGAAAVLVASEGVANACDDAVRVAGVGAASERVGLFQRDSYTAVESSERAAAAAYEMAGLGPDDVDFAEVHDCFAIAELLAYEDLGFCERGHAPELVDSGATELGGDLPVNPSGGLKSKGHPIGATGAGQVVEAFKQLTGRAGDRQVAGASVGLTHNVGGSGGAAVVHVLEGGAL
B9: Probable urocanate hydratase HutU (protein, UniProt D4GRM3 1-620)
chain: MHDQQSSARRDRLGDPSDEWRAYQGAPTGTDIECKGWRQEAALRMLNNNLDPEVAERPEDLVVYGGTGRAARSWDAYDAILTELRDLDDDETLLVQSGKPVGTFPTHERAPRVLIANSNLVGRWDDWEHFHELEAEGKIMYGQMTAGSWAYIGTQGIIQGTYETLAELARQRYDADLRGKLVVTGGLGGMSGAQPLAVTMNRGVCIAAEVQADRIERRVETDYLMEFADSLDEALENANAAIDAGEPYSVGVQMNAADMLEELLARDEIPDVVTDQTSAHDELEGYYPSGYTVAEADRLREDDPEKYVDASLDTMERHVQAILDLQDAGAIAFEYGNNIRGQVQNHRGMTTAFDFPGFVPAYIRPMFCRGRGPFRWAALSGDPADIHRTDEAIRELFPEHESLMRWIDLAQEQVSFQGLPSRVCWLGYATDDEGLTERARFALKINDLVASGEVSAPVVVTRDHLDAGSVASPYRETEAMRDGTDAVADWPILNALLNTAAGADIVSVHDGGGVGIGNSLHANNHVVLDGSDLAAKKARAVFTTDPGMGVIRHADAGYEDALDEATRSNVRIPMRDHDAAARTERSERSERSERADRADRTAEDGGHATETGESAGRGDE
B10: Small archaeal modifier protein 3 (protein, UniProt D4GVB0 1-92)
chain: MELELRFFATFREVVGQKSIYWRVDDDATVGDVLRSLEAEYDGLAGRLIEDGEVKPHVNVLKNGREVVHLDGMATALDDGDAVSVFPPVAGG

The molecules below were run against T1, Flag-SAMP1 S85R (Haloferax volcanii) (UniProt D4GUF6) (assay: affinity purification with mass spectrometry; Flag-SAMP1 S85R expressed in Hfx. volcanii H26 (parent) grown with 100 mM DMSO; lysate (2 M NaCl, 1% Triton X-100, 1 mM EDTA) on anti-Flag M2 beads, washed in TBS, eluted with 3x Flag peptide; reducing SDS-PAGE, gel regions of 30 to 45 and 60 to 200 kDa analysed by LC-MS/MS; ΔmsrA strain in …).
T1 sequence: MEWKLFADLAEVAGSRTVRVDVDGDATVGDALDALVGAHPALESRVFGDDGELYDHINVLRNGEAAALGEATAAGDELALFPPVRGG

Molecule | binding
Ferritin related (IPR012347) protein (Haloferax volcanii (endogenous in H26)) | binds
Aldehyde dehydrogenase AldH2 (Haloferax volcanii (endogenous in H26)) | binds
Methionine-S-sulfoxide reductase MsrA (Haloferax volcanii (endogenous in H26)) (enzyme) | binds
Peptidase S9, prolyl oligopeptidase active site domain protein (Haloferax volcanii (endogenous in H26)) | binds
B1 | binds
B2 | binds
B3 | binds
B4 | binds
B5 | binds
B6 | binds
B7 | binds
B8 | binds
B9 | binds
B10 | binds

These are yes or no findings as the source states them, for the method shown. Binding seen in cells or lysates may run through a third protein. Here binding means that the protein was enriched with, or labelled near, the bait; the list need not be complete. Tags and fused reporters may be left off the sequences shown.
